Drawing on US20190185568A1, this text covers binding for 1 molecule.

These are yes or no findings as the source states them, for the method shown. A result given as binding can be weak or reduced; the word gives no strength.

Assay [1] deals with bovine PD-1 expressed on CHO-DG44 cells (bovine PD-1 expressing cells) (bovine). Nature of the assay: flow cytometry on bovine PD-1 expressing CHO-DG44 cells, Alexa Fluor 647-labeled anti-bovine IgG (H+L) detection.
Assay [2] shares this target. The experiment in a line: flow cytometry on bovine PD-1 expressing CHO-DG44 cells.

B1: rat-bovine chimeric anti-bovine PD-1 antibody ch5D2 (mutated bovine IgG1, IgG1 ADCC-) (antibody)
heavy: QVQLKETGPGLVQPTQTLSITCTVSGFSLTSYYIQWVRQTPGKGLEWMGFIRSGGSTEYNSEFKSRLSINRDTSKNQVFLKMNSLKTEDTGVYYCARTSSGYEGGFDYWGQGVMVTVSSASTTAPKVYPLSSCCGDKSSSTVTLGCLVSSYMPEPVTVTWNSGALKSGVHTFPAVLQSSGLYSLSSMVTVPGSTSGQTFTCNVAHPASSTKVDKAVDPTCKPSPCDCCPPPPVAGPSVFIFPPKPKDTLTISGTPEVTCVVVDVGHDDPEVKFSWFVDDVEVNTATTKPREEQFNSTYRVVSALRIQHQDWTGGKEFKCKVHNEGLPSSIVRTISRTKGPAREPQVYVLAPPQEELSKSTVSLTCMVTSFYPDYIAVEWQRNGQPESEDKYGTTPPQLDADSSYFLYSKLRVDRNSWQEGDTYTCVVMHEALHNHYTQKSTSKSAGK
light: DVVLTQTPVSLSVTLGDQASISCRSSQSLEYSDGYTYLEWYLQKPGQSPQLLIYGVSNRFSGVPDRFIGSGSGTDFTLKISRVEPEDLGVYYCFQATHDPDTFGAGTKLELKQPKSPPSVTLFPPSTEELNGNKATLVCLISDFYPGSVTVVWKADGSTITRNVETTRASKQSNSKYAASSYLSLTSSDWKSKGSYSCEVTHEGSTVTKTVKPSECS
Consider B1, for which the binding entry in assay [1] and in assay [2] was “binds” throughout.
